Data published in publication PMC4761979.
No constants are given. Whether binding was seen depends on the method and setting.

Experiments:
[1] = biological target: T1, isoD7-Aβ_(1–10) (human); assay: condition: total concentration of peptide and ZnCl2 from 1.0 to 1.7 mM; NMR titration; method of continuous variations: peptide and ZnCl2 in varying proportions at a fixed total concentration (from 1.0 to 1.7 mM); titration of 1.0-1.5 mM peptide with ZnCl2 at pH 6.8-7.0; both purified; settings: remark: other sources report otherwise
T1 chain: DAEFRHDSGY

[2] = biological target: T1, isoD7-Aβ_(1–10) (human); assay: dynamic light scattering; peptide with two-fold molar excess of ZnCl2, measured within 10 minutes; peptide concentrations of Table 1: Aβ1-16 5.0 mM, H6R-Aβ1-16 1.0 mM, isoD7-Aβ1-16 0.8 mM, Aβ6-16 2.0 mM, isoD7-H13R-Aβ1-16 1.0 mM, isoD7-Aβ1-10 1.0 mM; both purified; settings: remark: other sources report otherwise

- binding [1]: no binding
- binding [2]: no binding (tested: 1.0 mM peptide)
B1: isoD7-Aβ_(1–10) (peptide)
chain: DAEFRHDSGY
modifications: here or on the partner: isoaspartate at 7; N-terminal acetyl; C-terminal amide; isoaspartate at 7; N-terminal acetyl; C-terminal amide
